According to PubChem BioAssay AID1671190 (National Center for Advancing Translational Sciences (NCATS), 2021):
Hit rate of the full screen: of about 580,000 compounds, about 6,100 (1.1%) were called active. This list was built around the results that the source calls inconclusive (neither active nor inactive); the mix of calls is not that of the screen. Calls come from the whole dose curve; as a rule, active = well fitted inhibition curve with a large enough effect; inconclusive = small, poorly fitted or top-dose-only effect, or another doubt; inactive = no such curve, though single readings can be large or run the other way. Potencies beside an inconclusive call are fits to weak or partial responses and may not hold up.

The chains behind the UniProt entries cited, without tags or fusion partners.
UniProt P18054, whole entry, looked up: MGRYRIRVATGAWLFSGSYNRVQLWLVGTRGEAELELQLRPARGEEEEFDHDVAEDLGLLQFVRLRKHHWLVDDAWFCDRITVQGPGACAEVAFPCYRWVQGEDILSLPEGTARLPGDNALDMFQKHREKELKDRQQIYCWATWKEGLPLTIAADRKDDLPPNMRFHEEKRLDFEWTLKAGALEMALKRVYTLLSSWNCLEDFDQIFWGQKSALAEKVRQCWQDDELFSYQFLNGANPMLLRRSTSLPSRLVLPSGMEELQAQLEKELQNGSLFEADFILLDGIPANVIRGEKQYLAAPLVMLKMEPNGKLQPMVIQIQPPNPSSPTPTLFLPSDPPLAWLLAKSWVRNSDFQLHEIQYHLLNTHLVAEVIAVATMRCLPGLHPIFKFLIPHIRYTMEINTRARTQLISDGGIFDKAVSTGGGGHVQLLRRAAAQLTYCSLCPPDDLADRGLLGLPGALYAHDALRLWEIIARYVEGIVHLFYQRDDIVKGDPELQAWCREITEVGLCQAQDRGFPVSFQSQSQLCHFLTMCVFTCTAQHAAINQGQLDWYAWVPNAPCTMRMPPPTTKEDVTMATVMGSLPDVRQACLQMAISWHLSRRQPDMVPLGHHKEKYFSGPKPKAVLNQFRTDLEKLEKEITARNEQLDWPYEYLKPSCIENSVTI

These molecules were tested against Polyunsaturated fatty acid lipoxygenase ALOX12 (Homo sapiens) (UniProt P18054) (assay: Primary qHTS assay for inhibitors of human arachidonate 12S-lipoxygenase (ALOX12): Round 2). Conditions: purified 12hLO, xylenol orange hydroperoxide absorbance; series mostly up to 108 µM.
Method in brief: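 Purified human 12hLO (150 nM final) in 25 mM Hepes, 0.01% Triton X-100, pH 7.0 was preincubated 15 min at room temperature with compound. Then 40 uM arachidonic acid was added, 30 min. Hydroperoxide was read by Fe-XO absorbance ratio 573/405 nm.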
Potency is the fitted concentration of half-maximal effect.

SMILES	Potency
C=CCN(C(=O)CCS(=O)(=O)c1cccc2nsnc12)c1ccccc1	inconclusive: 141 µM [inhibitor, partial curve, poor fit]
CC(=O)N1CCC2(CC1)C/C(=N\NC(=S)Nc1ccc(C)cc1)c1cc(O)ccc1O2	active: 44.7 µM
O=C(Nc1c(-c2ccc(F)cc2)nc2sccn12)c1cccc(S(=O)(=O)N2CCOCC2)c1	inconclusive: 3.16 µM [inhibitor, full curve, poor fit]
COc1ccccc1NC(=O)CSc1ccc(-c2sc(C)nc2C)nn1	inactive
CCOc1ccc(C(=O)CC(NCc2cccs2)C(=O)O)cc1 (stereo not given)	inconclusive: 112 µM [inhibitor, partial curve, poor fit]
COc1cc(/C=C2\SC(=O)N(c3ccc(Cl)cc3)C2=O)cc([N+](=O)[O-])c1O	inconclusive: 35.5 µM [inhibitor, partial curve, poor fit]
O=C(CCl)N(CCc1ccccc1)CCc1ccccc1	inconclusive: 56.2 µM [inhibitor, partial curve, poor fit]
CN(C)C(CNC(=O)c1ccc(-c2ccccc2)cc1)c1ccccc1 (stereo not given)	inconclusive: 63.1 µM [inhibitor, partial curve, poor fit]
Cc1ccc(S(=O)(=O)N2CCN(CC(=O)NC3CCCc4ccccc43)CC2)c(C)c1 (stereo not given)	inconclusive: 44.7 µM [inhibitor, partial curve, poor fit]
CCOC1CCCCC1NS(=O)(=O)c1ccc(Cl)cc1 (stereo not given)	inconclusive: 126 µM [inhibitor, single point]
C=CCOc1ccc(C(c2c(O)nc(SC)[nH]c2=O)c2c(O)nc(SC)[nH]c2=O)cc1	inconclusive: 39.8 µM [inhibitor, partial curve, poor fit]
Cc1ccc(Nc2ccccc2)nn1	inconclusive: 126 µM [inhibitor, single point]
O=c1c2c(n(Cc3cccnc3)n1-c1ccccc1)CN(Cc1ccc(O)cc1)CC2	inactive
Fc1ccc(C(c2nnnn2Cc2cccs2)N2CCN(C3CCCC3)CC2)cc1 (stereo not given)	inconclusive: 39.8 µM [inhibitor, single point]
COc1cccc(CN2CCNC(=O)C2CC(=O)NCCCC2CCCC2)c1OC (stereo not given)	inconclusive: 63.1 µM [inhibitor, partial curve, poor fit]
COc1ccc(OCC(O)Cn2c(Nc3ccccc3)nc3c2c(=O)n(C)c(=O)n3C)cc1 (stereo not given)	inconclusive: 126 µM [inhibitor, single point]
Cc1ccc(C2CCN(C(=S)Nc3cccc(Cl)c3)C2)cc1 (stereo not given)	inconclusive: 44.7 µM [inhibitor, partial curve, poor fit]
CCOc1cc(/C=C2\NC(=S)N(C)C2=O)ccc1OCc1ccc(C(=O)O)cc1	inactive
O=C(NCC(c1ccc2c(c1)OCO2)N1CCOCC1)c1ccccc1F (stereo not given)	inconclusive: 158 µM [inhibitor, single point]
Cc1ccc(Cn2c(O)c(N=O)c3ccccc32)cc1	inconclusive: 56.2 µM [inhibitor, partial curve, poor fit]

SMILES	Potency
CC(CNC(=O)Cn1ccc2cc(S(=O)(=O)N3CCCCC3)ccc21)c1ccccc1 (stereo not given)	inconclusive: 56.2 µM [inhibitor, partial curve, poor fit]
CC(C)(C)c1ccc(C(O)CCCN2CCC(C(O)(c3ccccc3)c3ccccc3)CC2)cc1 (stereo not given)	inconclusive: 44.7 µM [inhibitor, partial curve, poor fit]
CC(C)CC(C(=O)O)N1C(=O)C2C3CC(C2C1=O)C1C(c2ccccc2)c2sc(=O)[nH]c2SC31 (stereo not given)	inconclusive: 56.2 µM [inhibitor, partial curve, poor fit]
N#CC1=C(S)N(c2ccccc2)C(c2cccs2)NC1=O (stereo not given)	inconclusive: 22.4 µM [inhibitor, partial curve, poor fit]
O=C(O)CC1CCOCC1	inactive
Cc1ccc2nc(SCC(=O)c3ccc(O)cc3O)[nH]c2c1	inactive
Cc1ccc(-c2nnc3sc(-c4cccc(F)c4)nn3c2=O)cc1	inconclusive: 50.1 µM [inhibitor, partial curve, poor fit]
C1CCN(CCC2CCCCN2)CC1 (stereo not given)	inconclusive: 141 µM [inhibitor, partial curve, poor fit]
CSc1nc(N)nc2c1ncn2CC(=O)NCC(c1ccccc1)c1ccccc1	inactive
CCOc1ccccc1CN1C(=O)NC(C)(c2ccccc2)C1=O (stereo not given)	inconclusive: 35.5 µM [inhibitor, single point]
O=C(CCCN1C(=O)/C(=C/c2ccc(F)cc2)SC1=S)NCCCn1ccnc1	inconclusive: 4.47 µM [inhibitor, full curve, poor fit]
N#Cc1cccc(-c2nc3cnc(N4CCOCC4)nc3n(C3CC3)c2=O)c1	inconclusive: 35.5 µM [inhibitor, single point]
N#Cc1ccc(Oc2ccc(-c3ccccc3)cc2)cc1	inactive
COCCNc1oc(-c2ccccc2)nc1S(=O)(=O)c1ccc2c(c1)OCCO2	inconclusive: 1.58 µM [inhibitor, full curve, poor fit]
CCN(CC)CCC(=O)N1c2ccccc2Sc2ccc(NC(=O)OC)cc21	active: 28.2 µM
O=C(N/N=C/c1ccccn1)c1ccccc1	inactive
O=C(COC(=O)c1ccc(S(=O)(=O)NCc2ccco2)cc1)NCc1ccc(F)cc1	inconclusive: 89.1 µM [inhibitor, partial curve, poor fit]
CCc1ccc(-n2c(=O)c3ccc(C(=O)NCCc4ccccc4)cc3n(CC(N)=O)c2=O)cc1	inconclusive: 126 µM [inhibitor, partial curve, poor fit]
COc1ccc(OCC(=O)NC(=S)Nc2ccc(S(=O)(=O)Nc3cc(OC)nc(OC)n3)cc2)cc1	inconclusive: 22.4 µM [inhibitor, partial curve]
COC(=O)C1(C(=O)OC)C(C(=O)c2ccccc2)C1c1ccccc1 (stereo not given)	inconclusive: 112 µM [inhibitor, partial curve, poor fit]

A few values from the entries so far:
Entry for `O=C(COC(=O)c1ccc(S(=O)(=O)NCc2ccco2)cc1)NCc1ccc(F)cc1` under Potency: inconclusive: 89.1 µM [inhibitor, partial curve, poor fit]
Entry for `CCOc1ccccc1CN1C(=O)NC(C)(c2ccccc2)C1=O` (stereo not given) under Potency: inconclusive: 35.5 µM [inhibitor, single point]
